Laboratory results: patent US20170165322A1, “PEPTIDE AND SMALL MOLECULE AGONISTS OF EPHA AND THEIR USES IN DISEASE” (CASE WESTERN RESERVE UNIVERSITY, priority 2006, published 2017)
At least one compound was matched to its structure with a doubt left.

Columns and labels:
ERK1/2 = assay: Immunoblot of p-ERK1/2 in DU145 cells; format: cell-based, human; settings: DU145-vector cells, 1 nM rapamycin
Description: (§1) A Immunoblot analysis of the expression and tyrosine phosphorylation of EphA2 in DU145 cells. Parental DU145 cells were stably infected with a retroviral vector expressing wild-type EphA2 or empty vector. Clonal puromycin-resistant cells were isolated and expanded. The selected cells at 70-80% confluence were stimulated with 2 μg/ml ephrin-A1-Fc for the indicated times. The total cell lysates were resolved by SDS-PAGE and then probed with rabbit polyclonal anti-p-EphA/B and anti-EphA2 antibodies. […] The cells were treated as described in (A). Cell lysates were subject to immunoblot with the indicated antibodies.
(§2) DU145-vector cells were pretreated with okadaic acid (10, 50, and 250 nM) for 1 h, followed by stimulation with ephrin-A1-Fc for 30 min. The total cellular lysates were prepared and subjected to immunoblot analyses as described in FIG. 1 using the indicated antibodies. Notes: Okadaic acid inhibits only PP2A at low concentrations (<100 nM), but it inhibits both PP1 and PP2A at higher concentrations (>100 nM).
(§3) A. Cells were treated with rapamycin (1 nM) in the absence or presence of ephrin-A1 (2 μg/ml) for the indicated times Immunoblot analysis was performed as described above. […]

Akt = assay: Immunoblot of p-Akt (Ser473) in DU145 cells; format: cell-based, human; settings: DU145-vector cells, 1 nM rapamycin
Description: as §1, §2, §3

LKR-13 cells = assay: Growth of LKR-13 mouse lung cancer cells; format: cell-based; settings: LKR-13 cells (activated K-ras)
DU145 cells = assay: Proliferation assay by cell counting (Trypan blue, hemocytometer); format: cell-based, human; settings: DU145 vector control cells expressing low levels of EphA2; ephrin-A1-Fc 2 μg/ml, rapamycin 10 and 100 nM
H1975 NSCLC cells = assay: Clonal growth assay of H1975 cells; format: cell-based, human

CO[C@H]1C[C@@H]2CC[C@@H](C)[C@@](O)(O2)C(=O)C(=O)N2CCCC[C@H]2C(=O)O[C@H]([C@H](C)C[C@@H]2CC[C@@H](O)[C@H](OC)C2)CC(=O)[C@H](C)/C=C(\C)[C@@H](O)[C@@H](OC)C(=O)[C@H](C)C[C@H](C)/C=C/C=C/C=C/1C [rapamycin]
ERK1/2 activities (ERK1/2): upregulated | phosphorylation of Akt (Akt): increased the phosphorylation of Akt in a time-dependent manner | cell growth (LKR-13 cells): suppressed cell growth | proliferation (growth curves, cell counting) (DU145 cells): inhibited by rapamycin in a dose-dependent manner | proliferation / growth in clonal growth assay (H1975 NSCLC cells; H1975-EphA2 (EphA2-overexpressing) cells): markedly sensitized cells to growth inhibition | proliferation / growth in clonal growth assay (H1975 NSCLC cells; H1975 vector control cells): could inhibit the growth
